# From PMC7459424
# Sequences of proteins named here, by UniProt entry; tags and fusion partners are left off.
# UniProt P70191: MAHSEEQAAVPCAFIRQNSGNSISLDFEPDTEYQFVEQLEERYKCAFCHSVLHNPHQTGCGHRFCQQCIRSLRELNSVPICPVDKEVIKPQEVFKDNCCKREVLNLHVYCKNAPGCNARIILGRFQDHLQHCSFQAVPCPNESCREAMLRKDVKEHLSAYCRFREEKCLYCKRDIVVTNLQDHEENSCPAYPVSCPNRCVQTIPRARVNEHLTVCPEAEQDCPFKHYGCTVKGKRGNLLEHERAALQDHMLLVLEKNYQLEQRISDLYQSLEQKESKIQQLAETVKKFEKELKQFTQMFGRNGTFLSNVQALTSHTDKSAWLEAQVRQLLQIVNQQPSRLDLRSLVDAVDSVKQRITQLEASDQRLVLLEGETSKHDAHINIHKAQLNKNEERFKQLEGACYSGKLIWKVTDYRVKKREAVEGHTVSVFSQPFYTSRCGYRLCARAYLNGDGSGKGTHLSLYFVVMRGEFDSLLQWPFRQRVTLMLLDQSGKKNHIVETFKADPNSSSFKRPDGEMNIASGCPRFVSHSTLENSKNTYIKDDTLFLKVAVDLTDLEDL
# T1: recombinant Strep-Flag-IL-17 (SF-IL-17), murine (mouse) (UniProt Q62386)
# T1 sequence: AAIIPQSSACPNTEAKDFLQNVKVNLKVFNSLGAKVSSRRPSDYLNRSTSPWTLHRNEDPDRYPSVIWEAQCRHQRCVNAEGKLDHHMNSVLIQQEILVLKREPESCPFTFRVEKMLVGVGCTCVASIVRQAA
# Legend:
# [1] = target: T1, recombinant Strep-Flag-IL-17 (SF-IL-17), murine (mouse); experiment: affinity purification with mass spectrometry; ST2 cells stimulated 15 min with murine SF-IL-17 (500 ng/ml), lysed in 1% DDM; the ligand isolated by consecutive anti-Flag and Strep-Tactin purification; MS with iBAQ; wild-type cells, and TBK1/IKKε DKO, NEMO KO, ACT1 KO and reconstituted TRAF6 KO cells for comparison; only the target purified
# [2] = target: T1, recombinant Strep-Flag-IL-17 (SF-IL-17), murine (mouse); experiment: as above; remark: listed apart in the source
# [3] = target: T1, recombinant Strep-Flag-IL-17 (SF-IL-17), murine (mouse); experiment: affinity purification with mass spectrometry; control: ST2 cells first solubilised in 1% DDM, 3 μg SF-IL-17 added post-lysis; consecutive anti-Flag and Strep-Tactin purification; MS; only the target purified
Molecule,binding [1],binding [2],binding [3]
TRAF5 (from UniProt P70191 1-558),no binding,,
"IL-17RC (receptor, UniProt Q8K4C2 22-698) ERLMEPQDTARCSLGLSCHLWDGDVLCLPGSLQSAPGPVLVPTRLQTELVLRCPQKTDCALCVRVVVHLAVHGHWAEPEEAGKSDSELQESRNASLQAQVVLSFQAYPIARCALLEVQVPADLVQPGQSVGSAVFDCFEASLGAEVQIWSYTKPRYQKELNLTQQLPDCRGLEVRDSIQSCWVLPWLNVSTDGDNVLLTLDVSEEQDFSFLLYLRPVPDALKSLWYKNLTGPQNITLNHTDLVPCLCIQVWSLEPDSERVEFCPFREDPGAHRNLWHIARLRVLSPGVWQLDAPCCLPGKVTLCWQAPDQSPCQPLVPPVPQKNATVNEPQDFQLVAGHPNLCVQVSTWEKVQLQACLWADSLGPFKDDMLLVEMKTGLNNTSVCALEPSGCTPLPSMASTRAARLGEELLQDFRSHQCMQLWNDDNMGSLWACPMDKYIHRRWVLVWLACLLLAAALFFFLLLKKDRRKAARGSRTALLLHSADGAGYERLVGALASALSQMPLRVAVDLWSRRELSAHGALAWFHHQRRRILQEGGVVILLFSPAAVAQCQQWLQLQTVEPGPHDALAAWLSCVLPDFLQGRATGRYVGVYFDGLLHPDSVPSPFRVAPLFSLPSQLPAFLDALQGGCSTSAGRPADRVERVTQALRSALDSCTSSSEAPGCCEEWDLGPCTTLE",,binds,no binding (only SF-IL-17 added after cell lysis)

# Results are given in words; binding and its absence hold for the method and conditions named. Binding seen in cells or lysates may run through a third protein. Here binding means that the protein was enriched with, or labelled near, the bait; the list need not be complete. For part of these data: A no says only that the protein was not detected with the bait. Sequences can lack the tags named with a protein.
